Test results taken from publication PMC6458711.
These are yes or no findings as the source states them, for the method shown. Binding seen in cells or lysates may run through a third protein. Some entries that bind do so weakly or less than the wild type. Tags and fused reporters may be left off the sequences shown. One block for each molecule: values may come before it.

The chains behind the UniProt entries cited, without tags or fusion partners.
UniProt P27361: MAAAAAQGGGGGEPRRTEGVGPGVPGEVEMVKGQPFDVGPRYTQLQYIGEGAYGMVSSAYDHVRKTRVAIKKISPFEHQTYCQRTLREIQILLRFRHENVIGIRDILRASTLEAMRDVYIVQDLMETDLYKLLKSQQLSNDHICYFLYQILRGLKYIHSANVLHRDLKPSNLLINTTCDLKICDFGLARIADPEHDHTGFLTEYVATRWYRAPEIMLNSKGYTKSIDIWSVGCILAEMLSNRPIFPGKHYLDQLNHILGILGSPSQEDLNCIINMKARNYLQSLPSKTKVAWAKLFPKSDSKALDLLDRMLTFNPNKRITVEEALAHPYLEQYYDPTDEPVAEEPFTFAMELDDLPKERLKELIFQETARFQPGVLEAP

Tests used:
[1] = target: T1, Transketolase (TKT) wild type, Flag-tagged (human) (UniProt P29401); assay: co-IP; cross-linking Co-IP and western blot with TKT as bait: Huh7 cells cross-linked, nuclei extracted and lysed by sonication; TKT antibody for Co-IP; blots with Flag, EGFR, MAPK3, IPO4 and NUP54 antibodies
T1 sequence: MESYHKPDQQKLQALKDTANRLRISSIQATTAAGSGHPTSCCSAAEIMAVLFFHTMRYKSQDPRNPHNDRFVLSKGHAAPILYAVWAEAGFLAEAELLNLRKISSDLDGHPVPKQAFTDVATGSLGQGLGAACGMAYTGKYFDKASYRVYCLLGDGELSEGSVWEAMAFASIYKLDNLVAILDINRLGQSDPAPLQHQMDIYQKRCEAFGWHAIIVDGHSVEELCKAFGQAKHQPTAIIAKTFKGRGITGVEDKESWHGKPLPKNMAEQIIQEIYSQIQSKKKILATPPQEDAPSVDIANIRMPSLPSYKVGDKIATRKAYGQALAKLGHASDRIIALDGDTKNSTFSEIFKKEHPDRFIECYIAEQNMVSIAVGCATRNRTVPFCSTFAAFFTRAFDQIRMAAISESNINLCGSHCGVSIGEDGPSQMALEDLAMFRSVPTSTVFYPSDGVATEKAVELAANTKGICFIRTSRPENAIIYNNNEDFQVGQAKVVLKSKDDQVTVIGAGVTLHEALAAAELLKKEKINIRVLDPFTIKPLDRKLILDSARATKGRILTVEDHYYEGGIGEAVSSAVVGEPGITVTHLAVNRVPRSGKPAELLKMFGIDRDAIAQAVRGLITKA

[2] = target: mitogen-activated protein kinase 3 (MAPK3) (human (endogenous in Huh7)) (UniProt P27361); assay: co-IP; cross-linking Co-IP and western blot with TKT as prey: TKT-WT overexpressing Huh7 cells cross-linked, nuclei extracted and lysed by sonication; EGFR/MAPK3 antibodies and IgG control for Co-IP; blots with Flag and TKT antibodies
[3] = target: epidermal growth factor receptor (EGFR) (human (endogenous in Huh7)) (UniProt P00533); assay: as above

Molecule: epidermal growth factor receptor (EGFR) (from UniProt P00533 25-1210)
binding [1]: binds

B1: nucleoporin 54 (NUP54) (protein, UniProt Q7Z3B4 1-507)
chain: MAFNFGAPSGTSGTAAATAAPAGGFGGFGTTSTTAGSAFSFSAPTNTGTTGLFGGTQNKGFGFGTGFGTTTGTSTGLGTGLGTGLGFGGFNTQQQQQTTLGGLFSQPTQAPTQSNQLINTASALSAPTLLGDERDAILAKWNQLQAFWGTGKGYFNNNIPPVEFTQENPFCRFKAVGYSCMPSNKDEDGLVVLVFNKKETEIRSQQQQLVESLHKVLGGNQTLTVNVEGTKTLPDDQTEVVIYVVERSPNGTSRRVPATTLYAHFEQANIKTQLQQLGVTLSMTRTELSPAQIKQLLQNPPAGVDPIIWEQAKVDNPDSEKLIPVPMVGFKELLRRLKVQDQMTKQHQTRLDIISEDISELQKNQTTSVAKIAQYKRKLMDLSHRTLQVLIKQEIQRKSGYAIQADEEQLRVQLDTIQGELNAPTQFKGRLNELMSQIRMQNHFGAVRSEERYYIDADLLREIKQHLKQQQEGLSHLISIIKDDLEDIKLVEHGLNETIHIRGGVFS
binding [1]: binds

Continued, values first:

binding [1]: binds
Molecule: mitogen-activated protein kinase 3 (MAPK3) (from UniProt P27361 1-379) (enzyme)

binding [2]: binds
binding [3]: binds
B2: Transketolase (TKT) wild type, Flag-tagged (enzyme, UniProt P29401-1 1-623)
chain: T1 sequence
